Laboratory results reported in article PMC9163075.
Results are given in words; binding and its absence hold for the method and conditions named. Binding seen in cells or lysates may run through a third protein. Some results given as binding are weak or reduced against the parent protein; the word gives no strength.

Chains of the proteins cited; added tags and fusions are not shown.
UniProt P28347: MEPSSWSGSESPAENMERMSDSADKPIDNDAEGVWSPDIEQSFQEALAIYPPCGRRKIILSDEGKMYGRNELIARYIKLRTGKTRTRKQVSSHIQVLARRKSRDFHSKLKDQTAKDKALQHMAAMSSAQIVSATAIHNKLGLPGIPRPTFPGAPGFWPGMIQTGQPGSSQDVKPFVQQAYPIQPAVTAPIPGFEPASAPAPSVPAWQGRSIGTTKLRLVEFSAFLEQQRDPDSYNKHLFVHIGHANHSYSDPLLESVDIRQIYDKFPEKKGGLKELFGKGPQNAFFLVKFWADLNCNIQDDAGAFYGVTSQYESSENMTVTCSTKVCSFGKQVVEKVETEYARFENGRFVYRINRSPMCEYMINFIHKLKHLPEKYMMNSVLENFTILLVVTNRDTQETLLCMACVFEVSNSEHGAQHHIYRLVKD
UniProt Q15561: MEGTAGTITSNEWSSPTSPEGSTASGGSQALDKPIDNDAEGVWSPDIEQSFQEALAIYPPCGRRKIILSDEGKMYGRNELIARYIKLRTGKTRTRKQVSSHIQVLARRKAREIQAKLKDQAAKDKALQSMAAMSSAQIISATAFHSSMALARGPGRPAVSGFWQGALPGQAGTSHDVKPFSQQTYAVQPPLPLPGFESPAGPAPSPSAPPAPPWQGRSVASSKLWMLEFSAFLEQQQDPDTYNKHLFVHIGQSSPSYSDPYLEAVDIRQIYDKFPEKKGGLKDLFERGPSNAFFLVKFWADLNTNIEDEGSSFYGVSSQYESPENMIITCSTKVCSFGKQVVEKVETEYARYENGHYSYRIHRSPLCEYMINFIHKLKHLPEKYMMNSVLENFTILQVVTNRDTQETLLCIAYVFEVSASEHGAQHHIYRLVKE
UniProt P03372: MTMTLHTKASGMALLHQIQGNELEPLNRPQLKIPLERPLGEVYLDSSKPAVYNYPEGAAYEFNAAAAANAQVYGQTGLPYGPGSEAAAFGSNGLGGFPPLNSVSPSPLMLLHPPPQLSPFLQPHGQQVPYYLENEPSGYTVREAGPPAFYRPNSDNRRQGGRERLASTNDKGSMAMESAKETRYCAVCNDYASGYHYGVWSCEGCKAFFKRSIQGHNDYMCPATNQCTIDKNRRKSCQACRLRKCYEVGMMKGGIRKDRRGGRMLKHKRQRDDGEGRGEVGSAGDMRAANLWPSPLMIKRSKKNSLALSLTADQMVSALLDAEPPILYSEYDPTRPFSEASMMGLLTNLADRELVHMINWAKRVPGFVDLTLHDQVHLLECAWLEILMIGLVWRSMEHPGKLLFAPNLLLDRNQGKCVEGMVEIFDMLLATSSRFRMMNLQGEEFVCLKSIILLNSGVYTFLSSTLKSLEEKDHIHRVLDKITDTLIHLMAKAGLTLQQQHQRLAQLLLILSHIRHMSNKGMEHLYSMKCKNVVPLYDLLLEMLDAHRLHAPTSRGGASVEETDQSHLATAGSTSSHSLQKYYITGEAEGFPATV

Key:
[1] = biological target: TEAD1 (UniProt P28347); experiment: co-IP; endogenous proteins; MCF-7 lysates precleared with protein-A-Sepharose, incubated overnight with antibodies for ERα, YAP or TEAD4, mouse IgG as negative control, western blot; also after 2 μM XMU-MP-1 for the indicated time (more TEAD4-YAP, less TEAD4-ERα)
[2] = biological target: TEAD4 in HEK293T cells (VGLL4 experiment, Supplementary Fig. 9) (UniProt Q15561); experiment: co-IP; HEK293T with overexpressed VGLL4 (Supplementary Fig. 9); the sentence does not name the method, co-IP is the only binding method of the paper

binding [1] | binding [2] | Molecule
binds |  | Estrogen receptor α (ERα), endogenous in MCF-7 cells (from UniProt P03372 1-595)
 | binds | VGLL4, overexpressed in HEK293T cells (protein, UniProt Q14135 1-290) METPLDVLSRAASLVHADDEKREAALRGEPRIQTLPVASALSSHRTGPPPISPSKRKFSMEPGDEDLDCDNDHVSKMSRIFNPHLNKTANGDCRRDPRERSRSPIERAVAPTMSLHGSHLYTSLPSLGLEQPLALTKNSLDASRPAGLSPTLTPGERQQNRPSVITCASAGARNCNLSHCPIAHSGCAAPGPASYRRPPSAATTCDPVVEEHFRRSLGKNYKEPEPAPNSVSITGSVDDHFAKALGDTWLQIKAAKDGASSSPESASRRGQPASPSAHMVSHSHSPSVVS
